# Laboratory results as given in PubChem BioAssay AID540276 (National Center for Advancing Translational Sciences (NCATS), 2011).
# Values joined by “and” are separate entries in the source; they are usually repeats but may differ in a detail not shown here. Equal values may be shown once. Screen size: about 300,000 compounds; about 5,400 (1.8%) were called active. Inconclusive results, whose numbers are uncertain, are shown with a selection of clear calls. Calls follow the shape of the full dose curve; tested in HEK293 cells. A potency beside an inconclusive call is a rough fit, not a confirmed value.
# Test: qHTS for inhibitors of binding or entry into cells for Marburg Virus
# Conditions: Marburg virus pseudotyped entry inhibition, cell reporter; activity change, negative = inhibition: at 37.8 µM (top of the series) unless noted
# % is scaled to controls: 0 for no effect and ±100 for the full control effect; potency is read from the fitted curve at half-maximal effect.
SMILES,Potency,"activity change, negative = inhibition"
Cc1ccsc1/C=N/n1c(-c2ccccc2)n[nH]c1=S,"inconclusive: 6.31 µM [inhibitor, single point]",
O=C(NNC(=O)C1CCC(C(=O)NNC(=O)c2cccs2)CC1)c1cccs1 (stereo not drawn),"inconclusive: 5.62 µM [activator, single point]",
CCN(CC)c1ccc(S(=O)(=O)N2CCCCC2)cc1NC(=O)CN1C(=O)NC2(CCCC2)C1=O,"inconclusive: 20 µM [inhibitor, partial curve, poor fit]",
CC(=O)Nc1ccc(NC(=O)Nc2ccc3c(c2)N(C)C(=O)CS3)cc1,"inconclusive: 5.62 µM [inhibitor, full curve, poor fit]",
CC(C)C(NC(=O)OCc1ccccc1)C(=O)NCc1ccc(C(=O)O)cc1 (stereo not drawn),"inconclusive: 3.98 µM [inhibitor, single point]",
CCOc1ccc(-n2c(=O)c3c4c(sc3n(CC(=O)NC(C)CC)c2=O)CCC4)cc1 (stereo not drawn),"inconclusive: 35.5 µM [activator, single point]",
COC(=O)c1cc(NS(=O)(=O)c2ccc(NCc3cccnc3)c(N)c2)cc(C(=O)OC)c1,"inconclusive: 5.62 µM [activator, single point]",
CC1(C)CC(=O)c2ccc(O)cc2O1,,inactive: -6.25% [at 46.1 µM]
COC(=O)c1ccccc1NC(=O)Cn1c(SC)c(F)cnc1=O,"inconclusive: 0.231 µM [inhibitor, partial curve, poor fit]",
Cc1c(C=O)c(Cl)n(C)c(=O)c1C#N,"inconclusive: 5.62 µM [inhibitor, single point]",
CCOC(=O)Cc1csc(NC(=O)CSc2nnc(-n3nc(C)cc3C)c3ccccc23)n1,"inconclusive: 14.6 µM [inhibitor, single point]",
COc1cccc(-c2nn(C)c3sc(C(=O)N4CCN(c5ccccc5)CC4)cc23)c1,"inconclusive: 22.4 µM [inhibitor, single point]",
O=C(CSc1cn(CCNC(=O)c2ccccc2F)c2ccccc12)Nc1ccc(F)cc1,"inconclusive: 4.47 µM [inhibitor, full curve, poor fit]",
O=C(CCC1CCCC1)Nc1ccc(OCC(=O)N2CCOCC2)cc1,"inconclusive: 6.51 µM [activator, partial curve, poor fit]",
CC(NC(=O)c1ccc2nc[nH]c2c1)c1ccccc1 (stereo not drawn),"inconclusive: 6.31 µM [inhibitor, partial curve, poor fit]",
Cc1[nH]nc(NCCO)c1[N+](=O)[O-],,inactive: -11.1%
COc1cc(/C=N/NS(=O)(=O)c2ccccc2)ccc1OS(=O)(=O)c1ccc(C)cc1,"inconclusive: 0.199 µM [inhibitor, full curve]",
COc1ccc2c(C)cc(SCC#N)nc2c1,,inactive: -14.3%
COc1ccc(N(CC(=O)Nc2ccc3c(c2)OCO3)S(=O)(=O)c2ccc(C)cc2)cc1OC,"inconclusive: 1 µM [inhibitor, full curve, poor fit]",
O=C(Nc1ccn(Cc2ccccc2)n1)c1cccc(F)c1,"inconclusive: 6.31 µM [inhibitor, full curve, poor fit]",
COc1ccc(S(=O)(=O)n2nc(-c3ccco3)nc2NCc2ccc(OC)c(OC)c2)cc1,,inactive: -19.9% [at 46.1 µM]
CC(=O)Oc1ccc(N2C(=O)CCC2=O)cc1,,inactive: 0.819%
CCOC(=O)c1cnc(SCc2nc(N)nc(Nc3ccccc3OC)n2)nc1N,,inactive: 1.62%

SMILES,Potency,"activity change, negative = inhibition"
CCOC(=O)C1CCN(C(C(=O)Nc2ccc3c(c2)OCCO3)c2ccccc2)CC1 (stereo not drawn),,inactive: 0.6%
O=[N+]([O-])c1ccc(O)c(C=NNc2ccc(S(=O)(=O)O)cc2)c1,,inactive: 21.6% [at 46.1 µM]
CN(Cc1c(F)cccc1Cl)C(=O)c1cc2ccccc2o1,,inactive: 9.49%
CN(C)S(=O)(=O)c1cccc(NC(=S)N/N=C/c2cc(Br)ccc2O)c1,active: 10 µM,
CCN(CC(=O)Nc1ccc(NC(C)=O)cc1)C(=O)CCN1C(=O)c2cccc([N+](=O)[O-])c2C1=O,,inactive: -0.545%
O=C(CCC1CCCC1)N1CCN(C(=O)c2cccnc2)CC1,"inconclusive: 29.1 µM [activator, single point]",
O=S(=O)(CCc1ccccc1)c1ccccc1,inactive,
CCC1CCCCN1c1cc(C)nc2cc(-c3cccc(C)c3)nn12 (stereo not drawn),"inconclusive: 35.5 µM [inhibitor, single point]",
O=C(O)c1ccc(C=C(c2nc3ccccc3s2)c2nc3ccccc3s2)cc1,,inactive: -7.04% [at 46.1 µM]
COc1cc(C2c3c(-c4c(C)cc(C)cc4O)n[nH]c3C(=O)N2CCCOC(C)C)cc(OC)c1OC (stereo not drawn),"inconclusive: 7.08 µM [inhibitor, partial curve, poor fit]",
O=C(NCC1CCCO1)c1ccccc1-c1nc(-c2ccccc2)no1 (stereo not drawn),"inconclusive: 35.5 µM [activator, single point]",
CCN(c1ccccc1)c1nc2ccsc2c(=O)s1,,inactive: 5.61%
O=C1c2cccc3cccc(c23)C(=O)C1(O)O,"inconclusive: 35.5 µM [inhibitor, single point]",
CCOC(=O)Cn1c(-c2cccnc2Cl)nc2cc(Cl)c(Cl)cc21,,inactive: 11.2%
CS(=O)(=O)N(Cc1ccc(C(=O)N2CCc3ccccc3C2)cc1)c1ccccc1,"inconclusive: 35.5 µM [inhibitor, single point]",
CCc1n(CC(O)COCC2CC=CCC2)c2ccccc2[n+]1C (stereo not drawn),"inconclusive: 3.55 µM [inhibitor, partial curve, poor fit]",
Cc1ccc(N2C(=O)CS(=O)(=O)CC2=O)cc1,"inconclusive: 35.5 µM [activator, single point]",
O=C(CSc1nnc(NC(=O)c2ccco2)s1)NCc1ccc2c(c1)OCO2,"inconclusive: 2.82 µM [inhibitor, single point]",
O=C(NC1CCCCC1)C(c1cccnc1)N(C(=O)CCl)c1ccccc1Cl (stereo not drawn),"inconclusive: 35.5 µM [inhibitor, single point]",
CCC/C=C(\CCC)C(NC(=O)Cc1ccccc1)c1ccc(C(=O)OC)cc1 (stereo not drawn),"inconclusive: 1.46 µM [inhibitor, full curve, poor fit]",
COc1cccc(NC(=O)COC(=O)CC(NC(N)=O)c2ccc(Cl)cc2)c1 (stereo not drawn),"inconclusive: 5.62 µM [activator, single point]",
Cc1cccc(-n2nnnc2-c2cnccc2C(F)(F)F)c1C,,inactive: -0.041% [at 46.1 µM]
CCc1nnc(NS(=O)(=O)c2ccc(NC(=S)NC(=O)c3ccc(F)cc3)cc2)s1,,inactive: -0.079%

# Given bar-delimited: part of the list above
SMILES | Potency | activity change, negative = inhibition
CCOC(=O)Cc1csc(NC(=O)CSc2nnc(-n3nc(C)cc3C)c3ccccc23)n1 | inconclusive: 14.6 µM [inhibitor, single point] | 
COc1cccc(-c2nn(C)c3sc(C(=O)N4CCN(c5ccccc5)CC4)cc23)c1 | inconclusive: 22.4 µM [inhibitor, single point] | 
O=C(CSc1cn(CCNC(=O)c2ccccc2F)c2ccccc12)Nc1ccc(F)cc1 | inconclusive: 4.47 µM [inhibitor, full curve, poor fit] | 

# Following part.

SMILES,Potency,"activity change, negative = inhibition"
[N-]=[N+]=Nc1ccc(C(=O)CSC[C@H](NC(=O)CC[C@H](N)C(=O)O)C(=O)NCC(=O)O)cc1,active: 5.01 µM,
O=C(NCc1ccco1)c1c2c(nc3ccccc13)CCC2,,inactive: -4.49%
O=C1N(Cc2ccccc2)c2ccccc2C12OCCO2,"inconclusive: 3.98 µM [inhibitor, partial curve, poor fit]",
COc1ccc(S(=O)(=O)NCc2cccnc2)c2ccccc12,,inactive: -21.4% [at 46.1 µM]
O=C1c2oc3ccccc3c(=O)c2C(c2cccc(O)c2)N1CCCN1CCOCC1 (stereo not drawn),,inactive: -0.664%
CCC(C)(C(=O)Nc1ccccc1C)N(C(=O)CNC(C)=O)c1ccc(C)cc1 (stereo not drawn),"inconclusive: 0.447 µM [activator, full curve, poor fit]",
CC(C)c1ccccc1N=C1SCCCN1C(=O)c1cccc(N2C(=O)CCC2=O)c1,"inconclusive: 35.5 µM [inhibitor, single point]",
O=C(NN=Cc1ccc2c(c1)OCO2)c1ccccc1,"inconclusive: 6.31 µM [activator, partial curve, poor fit]",
O=C(NCCCN1CCOCC1)c1ccc(Cl)c(S(=O)(=O)N2CCCCCC2)c1,"inconclusive: 16.4 µM [inhibitor, single point]",
CCN1CCN(c2c(S(=O)(=O)c3ccc(Cl)cc3)cnc3ccccc23)CC1,"inconclusive: 14.1 µM [inhibitor, partial curve, poor fit]",
COc1cccc(CNC(=O)CN2CCCN(Cc3ccccc3)S2(=O)=O)c1,,inactive: -0.602% [at 46.1 µM]
Cc1cccc(NC(=O)c2n[nH]c([N+](=O)[O-])c2Br)c1C,"inconclusive: 17.8 µM [inhibitor, partial curve, poor fit]",
Cc1nc2c(C)cccc2cc1C(=O)N/N=C/c1ccc(N(C)C)cc1,"inconclusive: 14.6 µM [inhibitor, partial curve, poor fit]",
COc1ccc(NC(=O)CSc2nc3ccccc3c(=O)n2CCCN2CCC(C)CC2)c(OC)c1,"inconclusive: 2 µM [inhibitor, full curve, poor fit]",
CCN(CC)CCSc1nnc2c3cc(C)ccc3n(Cc3ccccc3)c2n1,"inconclusive: 35.5 µM [inhibitor, single point]",
COc1cccc(N/C=C/C(=O)c2ccc(Br)cc2)c1,"inconclusive: 20 µM [inhibitor, single point]",
Cc1[nH]c2ccccc2c1C(O)c1ccncc1 (stereo not drawn),,inactive: -21.3% [at 46.1 µM]
CC(C)(C)NCC(O)c1ccc(O)c(CO)c1 (stereo not drawn),"inconclusive: 2 µM [inhibitor, partial curve, poor fit] and inconclusive: 25.1 µM [inhibitor, single point]",
COc1ccccc1OCc1ccc(C(=O)N(C)C)o1,"inconclusive: 0.562 µM [activator, full curve, poor fit]",
NC(=O)NC(=O)COC(=O)c1ccc(Cl)c(S(=O)(=O)N(Cc2ccccc2)c2ccc(Cl)cc2)c1,"inconclusive: 29.1 µM [inhibitor, single point]",
O=C(NCCOc1ccccc1)c1cc2ccccc2o1,"inconclusive: 1.41 µM [activator, single point]",
COc1ccc(Br)cc1/C=N/NC(=O)C(c1ccncc1)N1CCOCC1 (stereo not drawn),"inconclusive: 25.1 µM [inhibitor, single point]",
